Measurements from “University of Dundee, Small-Polar-MMV Screening Library” (2021), ChEMBL document CHEMBL3988442.

Mtb cholesterol medium: 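Whole-cell growth test on Mycobacterium tuberculosis, read after 4 days in a medium based on cholesterol and the lipid DPPC; the read-out is not stated. Compounds at 50 µM. The record gives no direction; compounds that gave an IC50 in retests scored well above the rest, so higher reads as more growth inhibition. Size under these conditions: about 69,000 compounds, about 370 of them at 50% or above in at least one test.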
Mtb glucose medium: 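Growth of Mycobacterium tuberculosis over 3 days (7H9 medium with glucose and tyloxapol); the read-out is not stated. Tested at 50 µM. Direction is inferred from retests: higher values go with more growth inhibition. About 69,000 compounds were tested under these conditions; 1.1% (about 760) showed 50% or more at least once.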

Values are the deposited “Percent Effect”, in %. The controls that fix the scale are not given in the record; negative values are as filed. The compounds are a random part of those screened. Two or more numbers in one place are separate tests of the same structure; such repeats can differ widely.

| Compound | Mtb cholesterol medium | Mtb glucose medium |
|---|---|---|
| `Cc1nn(C)c(C)c1CCC(=O)N(C)Cc1ccc2nsnc2c1` | 0.5196 | 1.385 |
| `O=C(O)[C@@H]1CN(Cc2cnc(C3CCCCC3)nc2)C[C@H]1C1CC1` | -4 | -26.55 |
| `Cc1ccccc1[C@@H]1CN(Cc2nc3ncccn3n2)C[C@H]1C(=O)O` | -14.01 | -13.51 |
| `Cc1cnn(-c2cccc(N3CCN(c4cc(C)nc(C)n4)CC3)n2)c1` | 53.22 | -4.047 |
| `CCc1ccccc1C(=O)NS(=O)(=O)CCCC#N` | -6.431 | 0.7775 & 9.534 |
| `CCN1CCCC(C)(C(=O)NCc2nccn2Cc2ccccc2)C1` (centres unmarked) | -21.24 | -12.18 |
| `O=c1oc2ccccc2n1CCN(CC1CCOC1)C1CC1` (centres unmarked) | -6.151 & -2.963 | 7.393 |
| `Cc1nn(CCC#N)c(C)c1CCC(=O)N(C)C.Cl` | -27.69 | -15.97 |
| `O=C(NCC1(O)COCCN(Cc2ccc(O)cc2)C1)c1cnccn1` (centres unmarked) | 29.21 | 7.046 |
| `CCC(NC(=O)NCC(=O)NC(C)C)c1cc(F)ccc1F` (centres unmarked) | -2.343 | 7.398 |
| `COCCNC(=O)Cn1c(-c2ccc(Cl)cc2)nc(C)c(CCO)c1=O` | -17.86 | -29.84 |
| `CCCC1(CO)CCCN(C(=O)CN2CCN(CC)CC2)C1` (centres unmarked) | -11.71 | 12.06 |
| `CC(C)OCCNC(=O)C1CCC(=O)N(C2CCCC2)C1` (centres unmarked) | -8.211 | 2.194 |
| `CC(C)(CN1CCCC1)CN1CCC(Cn2cc(C3CC3)nn2)CC1` | 8.629 | -8.428 & 1.296 |
| `COc1c(C2CCCN2C(=O)c2c(C)noc2C)c(C)nn1C` (centres unmarked) | 2.042 | -2.32 |
| `CCOc1cc(NC(=O)C2CC(=O)N(c3cccc(OC)c3)C2)ncn1` (centres unmarked) | 8.76 | -0.1333 & 5.496 |
| `O=C(COC1CCCCC1)Nc1ccn(CCc2ccncc2)n1` | 4.974 | -2.422 |
| `[H][C@@]12CS(=O)(=O)C[C@]1([H])N(CCCOc1ccccc1)CCN2CC=C(C)C` | -8.025 | 4.926 |
| `CCCc1nc(CN(CC)C(=O)c2ccc(OC)c(OC)c2)no1` | -28.65 | 4.509 |
| `Cc1ncsc1CCN(C)C(=O)c1ncccc1O` | -2.215 & 2.115 | 1.707 |
| `O=C(C1CCC1)N1CC[C@H](O)[C@@H]1Cc1cccnc1.O=C(O)C(F)(F)F` | -1.45 | 19.93 |
| `CC(OCC1CC1)C(=O)NCc1cccc(CN2CCCC2=O)c1` (centres unmarked) | -26.48 | -4.142 |
| `COCCN(C)C1COC2(CCN(Cc3cccc(F)c3)CC2)C1.O=C(O)C(F)(F)F.O=C(O)C(F)(F)F` (centres unmarked) | -26.83 | -9.373 |
| `O=C(c1sccc1C1CC1)N1CCN(c2nccs2)CC1` | 9.057 | 21.31 |
| `O=C(CC1CCCC1)N1CCOC(c2nc(-c3ncccn3)no2)C1` (centres unmarked) | -7.013 | 6.918 |
| `O=C(NCC(c1cccs1)N1CCOCC1)c1ccc(F)cc1Cl` (centres unmarked) | -29.11 | -22.76 |
| `COc1cccc2ccn(CCC(=O)N3CCCC(C(=O)O)C3)c12` (centres unmarked) | 0.1982 | -8.225 & 2.223 |
| `CCc1c(C)n(CCC#N)c2nc3ccccc3n2c1=O` | -12.55 | -17.25 & 60.58 |
| `COc1ccc(C(=O)N2C[C@@H](O)[C@H](NCc3ncccc3C)C2)cc1` | 10.68 | 5.038 |
| `COCCC(=O)N1CCN(CC(C)C)c2nc(C)ccc2C1.O=C(O)C(F)(F)F` | -7.481 | 10.64 & 5.848 |
| `COc1cccc(OCC(=O)N(C)c2cccnc2N(C)C)c1` | 2.872 | 17.84 |
| `CN1CCOC(CN(C(=O)CC2CCCC2)c2nccs2)C1` (centres unmarked) | -1.691 | 25.79 |
| `CC(=O)N1N=C(c2ccco2)OC1C(=O)NCCc1ccc(O)cc1` (centres unmarked) | -10.89 | 2.726 |
| `CCOc1cccc(COC(=O)c2ccc(F)cn2)n1` | 15.86 | 35.52 |
| `Cc1cccnc1NCCNc1cc(C(C)C)nc2ccnn12` | 8.648 | 36.62 |
| `COc1ccccc1C(=O)N1CCCC1c1nncn1CC(C)C` (centres unmarked) | -10.98 | 9.326 |
| `CC(C)Cc1nc(CN2CC(=O)N(C)c3ccccc3C2=O)no1` | -2.254 | 7.981 |
| `Cn1nc(CC(C)(C)C)cc1NC(=O)c1ccc(CNC(N)=O)cc1` | -3.877 | 17.9 |
| `COCCS(=O)(=O)NC(C)c1cccc(C)c1C` (centres unmarked) | -14.41 | 17.18 |
| `CC(C)c1nc(CNCC2CCCN2c2cccnn2)cs1` (centres unmarked) | 0.6062 | -5.892 |
| `O=C(O)C(F)(F)F.O=C(O)C(F)(F)F.[H][C@@]12OCCN(CC3CCOCC3)[C@@]1([H])CC[C@H]2OCCCn1cccn1` | -12.92 | -6.13 |
| `O=C(CCN1CCOC(C(F)(F)F)C1)NCc1cccc(Cl)c1` (centres unmarked) | -16.19 & -6.249 | 0.04676 & -12.91 |
| `Cc1cc(C)c2nc(CN(C)C(C)c3ccncn3)cc(O)c2c1` (centres unmarked) | 5.939 | -6.598 |
| `O=C1NC(=O)c2c3c(nc(O)c21)CCCC3` | -9.413 | -0.1969 |
| `COc1ncccc1C(=O)N1CCC(CNC(C)=O)CC1` | -5.672 | -13.81 |
| `CCc1nc(C(=O)N2CC(C(C)C)Nc3ccccc32)c[nH]1` (centres unmarked) | -6.019 | 23.58 |
| `Cc1nc(C)n(CC2CN(Cc3cccnc3)CCO2)n1` (centres unmarked) | -17.19 | 1.241 |
| `COc1ccc(C)cc1-c1csc(N)c1C#N` | -12.67 | 32.66 |
| `O=C(NC1CCN(c2ccc(-c3ccccc3F)nn2)C1)C1CCC1` (centres unmarked) | -12.6 | -6.584 & -1.846 |
| `CC(C)N(CCS(C)(=O)=O)Cc1csc(-c2ccccc2F)n1` | 4.623 | 9.096 |
| `O=C(CSc1ccncc1)NC1CC(=O)N(CCc2ccccc2)C1` (centres unmarked) | 14.85 | 22.06 & 2.128 |
| `[H][C@@]12CCN(Cc3cccc(C)n3)C[C@]1(C(=O)N1CCOCC1)CCO2` | -10.11 | -2.603 |
| `[H][C@@]12CC[C@H](Oc3cccc(F)c3)[C@]1([H])CN(C(=O)c1ccnn1C)C2` | 1.381 | 2.391 |
| `COCC1CN(Cc2cc(C)on2)Cc2cnn(C)c21.O=C(O)C(F)(F)F.O=C(O)C(F)(F)F` (centres unmarked) | 6.982 | -2.862 & 8.993 |
| `CC(=O)NC[C@]1(O)CCN(C(=O)c2ccc3c(c2)CCC3)C[C@H]1O` | 1.135 | 23.76 |
| `COC(=O)c1cccc(-c2c[nH]c(C)n2)c1` | 5.539 | 2.068 & 10.37 |

Some entries from above, unchanged:

Cc1nn(C)c(C)c1CCC(=O)N(C)Cc1ccc2nsnc2c1 gave Mtb cholesterol medium: 0.5196%; Mtb glucose medium: 1.385%.
COc1ncccc1C(=O)N1CCC(CNC(C)=O)CC1 gave Mtb cholesterol medium: -5.672%; Mtb glucose medium: -13.81%.
O=C(CCN1CCOC(C(F)(F)F)C1)NCc1cccc(Cl)c1 (centres unmarked) gave Mtb cholesterol medium: -16.19% & -6.249%; Mtb glucose medium: 0.04676% & -12.91%.
COCCC(=O)N1CCN(CC(C)C)c2nc(C)ccc2C1.O=C(O)C(F)(F)F gave Mtb cholesterol medium: -7.481%; Mtb glucose medium: 10.64% & 5.848%.
CCc1nc(C(=O)N2CC(C(C)C)Nc3ccccc32)c[nH]1 (centres unmarked) gave Mtb cholesterol medium: -6.019%; Mtb glucose medium: 23.58%.